Reference: patent publication US20230382910A1, “HETEROARYL COMPOUNDS FOR THE TREATMENT OF PAIN” (VERTEX PHARMACEUTICALS INCORPORATED, priority 2022, published 2023)
Some results were stated once for a whole list of compounds, not compound by compound.

Sequences of proteins named here, by UniProt entry; tags and fusion partners are left off. Residues count along the entry.
UniProt Q9Y5Y9, 660-890 limits assumed: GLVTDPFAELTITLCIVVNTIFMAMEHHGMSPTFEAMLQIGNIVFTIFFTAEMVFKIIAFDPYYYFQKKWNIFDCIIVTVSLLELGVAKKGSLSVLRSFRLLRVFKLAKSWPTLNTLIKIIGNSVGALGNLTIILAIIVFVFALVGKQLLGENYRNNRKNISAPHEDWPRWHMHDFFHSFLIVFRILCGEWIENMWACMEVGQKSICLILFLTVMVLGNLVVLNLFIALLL
UniProt Q9Y5Y9, 1148-1722 limits assumed: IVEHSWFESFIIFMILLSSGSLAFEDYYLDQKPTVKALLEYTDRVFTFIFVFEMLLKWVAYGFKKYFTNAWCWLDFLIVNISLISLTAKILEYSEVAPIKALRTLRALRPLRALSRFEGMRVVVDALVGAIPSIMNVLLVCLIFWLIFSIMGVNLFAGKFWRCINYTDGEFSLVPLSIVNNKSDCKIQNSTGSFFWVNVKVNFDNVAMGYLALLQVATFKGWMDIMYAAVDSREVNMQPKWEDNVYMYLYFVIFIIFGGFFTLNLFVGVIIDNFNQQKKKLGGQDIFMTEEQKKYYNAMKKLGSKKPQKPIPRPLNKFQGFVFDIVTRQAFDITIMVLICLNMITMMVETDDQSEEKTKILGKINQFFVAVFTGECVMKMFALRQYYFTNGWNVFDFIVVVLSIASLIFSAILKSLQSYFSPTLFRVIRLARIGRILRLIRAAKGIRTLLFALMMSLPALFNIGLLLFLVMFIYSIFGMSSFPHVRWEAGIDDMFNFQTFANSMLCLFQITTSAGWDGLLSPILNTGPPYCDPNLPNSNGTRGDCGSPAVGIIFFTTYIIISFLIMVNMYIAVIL
UniProt Q9Y5Y9, 126-399 limits assumed: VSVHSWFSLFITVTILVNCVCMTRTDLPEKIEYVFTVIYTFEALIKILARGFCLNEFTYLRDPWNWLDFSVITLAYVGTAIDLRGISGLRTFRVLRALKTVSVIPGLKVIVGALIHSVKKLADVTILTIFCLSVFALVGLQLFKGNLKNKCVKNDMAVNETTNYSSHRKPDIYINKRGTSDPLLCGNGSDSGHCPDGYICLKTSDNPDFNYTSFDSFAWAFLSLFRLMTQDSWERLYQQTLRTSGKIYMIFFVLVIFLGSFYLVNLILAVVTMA

Biological target: human NaV 1.8 (Homo sapiens, UniProt Q9Y5Y9)
Experiment: E-VIPR Assay Detecting and Measuring NaV Inhibition Properties
Format: cell-based
Settings: HEK cells expressing a truncated form of human NaV 1.8; electrical stimulation, membrane potential FRET dyes; read-out: measured IC50 value in the E-VIPR Assay

Cc1cc(C(C)(C)C)ccc1-c1cc(=O)c2c(OCCN(C)C)nccc2[nH]1 [Compound 306, 2-(4-tert-butyl-2-methyl-phenyl)-5-[2-(dimethylamino)ethoxy]-1H-1,6-naphthyridin-4-one] was tested, and the IC50 was < 0.5 µM.
With Cc1cc(C(C)(C)C)ccc1-c1cc(O)c2c(O)nccc2n1 [Compound 307, 2-(4-tert-butyl-2-methyl-phenyl)-1,6-naphthyridine-4,5-diol] the IC50 was < 0.5 µM.
For COC(=O)c1nccc2[nH]c(-c3ccc(C(C)(C)C)cc3C)cc(=O)c12 [Compound 308, methyl 2-(4-tert-butyl-2-methyl-phenyl)-4-oxo-1H-1,6-naphthyridine-5-carboxylate], the IC50 was < 0.5 µM.
In the case of Cc1cc2c(cc1-c1cc(O)c3c(O)nccc3n1)CCC2(C)C [Compound 309, 2-(1,1,6-trimethylindan-5-yl)-1,6-naphthyridine-4,5-diol], the IC50 is reported as < 0.5 µM.
In the case of COc1nccc2[nH]c(-c3ccc(C(C)(C)C)cc3C)cc(=O)c12 [Compound 310, 2-(4-tert-butyl-2-methyl-phenyl)-5-methoxy-1H-1,6-naphthyridin-4-one], the IC50 is reported as < 0.5 µM.
With Cc1cc(C(C)(C)C)ccc1-c1cc(=O)c2[nH]c(=O)ccc2[nH]1 [Compound 311, 6-(4-tert-butyl-2-methyl-phenyl)-1,5-dihydro-1,5-naphthyridine-2,8-dione] the IC50 was < 0.5 µM.
In the case of Cc1cc(C(C)(C)C)c(C)cc1-c1cc(=O)c2[nH]c(=O)ccc2[nH]1 [Compound 312, 6-(4-tert-butyl-2,5-dimethyl-phenyl)-1,5-dihydro-1,5-naphthyridine-2,8-dione], the IC50 is reported as < 0.5 µM.
With COc1ccc2[nH]c(-c3cc(C)c(C(C)(C)C)cc3C)cc(=O)c2n1 [Compound 313, 2-(4-tert-butyl-2,5-dimethyl-phenyl)-6-methoxy-1H-1,5-naphthyridin-4-one] the IC50 was < 0.5 µM.
For Cc1cc(C(C)(C)C)ccc1-c1[nH]c2ccc(F)cc2c(=O)c1CO [Compound 314, 2-(4-tert-butyl-2-methyl-phenyl)-6-fluoro-3-(hydroxymethyl)-1H-quinolin-4-one], the IC50 was < 0.5 µM.
In the case of Cc1cc(C(C)(C)C)ccc1-c1cc(=O)c2c(OCCC(C)C)nccc2[nH]1 [Compound 315, 2-(4-tert-butyl-2-methyl-phenyl)-5-isopentyloxy-1H-1,6-naphthyridin-4-one], the IC50 is reported as ≥ 5 µM.
COCCOc1nccc2[nH]c(-c3ccc(C(C)(C)C)cc3C)cc(=O)c12 [Compound 316, 2-(4-tert-butyl-2-methyl-phenyl)-5-(2-methoxyethoxy)-1H-1,6-naphthyridin-4-one] was tested, and the IC50 was < 0.5 µM.
For Cc1cc(C2(C(F)(F)F)CC2)ccc1-c1[nH]c2ccncc2c(=O)c1Cl [Compound 317, 3-chloro-2-[2-methyl-4-[1-(trifluoromethyl)cyclopropyl]phenyl]-1H-1,6-naphthyridin-4-one], the IC50 was < 0.5 µM.
With Cc1cc(C(C)(C)C)c(C)cc1-c1cc(=O)c2c(O)c(F)ccc2[nH]1 [Compound 318, 2-(4-tert-butyl-2,5-dimethyl-phenyl)-6-fluoro-5-hydroxy-1H-quinolin-4-one] the IC50 was < 0.5 µM.
Cc1cc(C(C)(C)C(F)(F)F)ccc1-c1cc(=O)c2c(O)c(F)ccc2[nH]1 [Compound 319, 6-fluoro-5-hydroxy-2-[2-methyl-4-(2,2,2-trifluoro-1,1-dimethyl-ethyl)phenyl]-1H-quinolin-4-one] was tested, and the IC50 was < 0.5 µM.
In the case of Cc1cc(C(C)(C)C)ccc1-c1cc(=O)c2c(O)cc(F)cc2[nH]1 [Compound 320, 2-(4-tert-butyl-2-methyl-phenyl)-7-fluoro-5-hydroxy-1H-quinolin-4-one], the IC50 is reported as < 0.5 µM.
With Cc1cc(C(C)(C)C)c(C)cc1-c1cc(=O)c2c(O)cc(F)cc2[nH]1 [Compound 321, 2-(4-tert-butyl-2,5-dimethyl-phenyl)-7-fluoro-5-hydroxy-1H-quinolin-4-one] the IC50 was < 0.5 µM.
In the case of Cc1cc(C(C)(C)C(F)(F)F)ccc1-c1cc(=O)c2c(O)cc(F)cc2[nH]1 [Compound 322, 7-fluoro-5-hydroxy-2-[2-methyl-4-(2,2,2-trifluoro-1,1-dimethyl-ethyl)phenyl]-1H-quinolin-4-one], the IC50 is reported as < 0.5 µM.
